The target in series [1] is RacR (response regulator, phosphorylated with RacS cytoplasmic domain + ATP) (UniProt O68795). Kind of series: EMSA. Particulars: RacScyto, 5 mM Mg2+, 20 mM Tris pH 7.4, 5 mM MgCl2, 50 mM KCl, 50 ug/ml BSA, 10 ug/ml poly(dI-dC), 10% glycerol, 20 min at RT, 6% native Tris-glycine gel at 4 C, recombinant protein, protein details: His-tag, probe letters rebuilt from the primers and the genome.

For series [2] the target is unchanged. Kind of series: competition with a labelled probe. Conditions: 10x excess unlabelled dcuB fragment abolishes shift, RacScyto, 2 mM ATP, 5 mM Mg2+, 20 mM Tris pH 7.4, 5 mM MgCl2, 50 mM KCl, 50 ug/ml BSA, 10 ug/ml poly(dI-dC), 10% glycerol, 20 min at RT, 6% native Tris-glycine gel at 4 C, recombinant protein, protein details: His-tag, label: 32P (unlabelled as competitor), probe letters rebuilt from the primers and the genome.

Construct, isoform or probe ends are uncertain for at least one entry. For part of these data: No signal at the amounts used counts as a negative.

On to “AGCTTGCAAAAATATATTAATTTTTTTTGAAGTAAATAAAATTTTTTATATTAATAAAAATTAAATATAAAGACATAATAGGATATAAAAATACTTAATTTATTGTATTTGAAAGTAGTTTTATTGTTAACCAATTATTAACTAAAAATGCAATATCATTATTTTATGATTTAAATCAAAAATTTTTGATTTTAAATTAAAATACTTTTATGAAAGGTTCAAAATGGGAACAAGAAAAGAACATGATTTTATTGGGGAATTAGAAATCTCTGATGAGGTTTATTA (double strand) [aspA-dcuA promoter region]”, for which the binding result in series [1] (2 mM ATP (phosphorylated RacR), label: 32P) is “binds”.
“GCGGTTTTCTTTCAGCTAAAGTTTGACTTAAAGTTTCCAAGTTTATTCACTCCTTTTGATCTTTGTAAAATATAATTTTAACAATGCGTATTGTAAATTTTAACAAAAAAACAAATCTAGAAATACTTTCTTTTATATGATATGATAATTTTTTATATAAATGTTACAAAATTTCTCATTATTTGC (double strand) [dctA promoter region]”: the binding result in series [1] (2 mM ATP, label: 32P) is listed as “no binding”.
Consider “AAAATTCTATCAATCTATCAAACCCATTACACTTTTGTTTTATATTTAAATTTAATTTAAATAATATAAAAAATTATTGTTTTATTTTTAGAAATATTATTCTTTAATTTAAAAATGTGATACAATAATAACTGTTTTTAAATATCAATTTTCAAAGGAGTTAAAATGGACTTTTTAACAAGCCTTAGTGAGGGAGGGCAATTTGCAATCCAAAT (double strand) [dcuB promoter region]”, for which the binding result in series [1] (2 mM ATP (phosphorylated RacR), label: 32P (unlabelled as competitor)) is on record as “binds”; in series [2] it was “binds”.
For the sequence “GCTGAGTATGGACCAATGGCCTTTGGATAGTTTGACATGAATTCTCCTTTGTTAAATATAGATTAAACAGAATGCATTTTATCACTACAATAATAATTTGTCAATAGTTTATTATCATAATAATAAAATTTTATTTTTAAGAAATGTTTTAAAGTATAAAGAGTA (double strand) [dcuC2 promoter region]”, the binding result in series [1] (2 mM ATP, label: 32P) was “no binding”.
Same read-out and setting: with “TAAGTATATAATAAGCAACGACAATTACCGCTAAAAGTGTAGAACATATCATAAAAATTGGCATGATTTCTCCTAAAGTTATTATTAGCTTTTATTTTATTTTAGCTAAAATTTAACTAATAAATATTTTTCATTTAAAATTTTACTTATTTTTTGCATTATAAAATTAATAATATGTATAGTTTGGTTACTGAAA (double strand) [dcuC promoter region]” the entry was “no binding”.

For the origin of these results see publication PMC5293742.
